Test results published in PMC6910965.
Numbering of substitutions follows the chain as printed. Numbers in names are those of the source. These are yes or no findings as the source states them, for the method shown. Binding seen in cells or lysates may run through a third protein. Some binding calls cover weakened binding; strength is not graded here. Where a sequence is shown, tags or fusion partners need not be part of it.

T1: WT BEST1-CFP-Myc (human) (UniProt O76090)
T1 sequence: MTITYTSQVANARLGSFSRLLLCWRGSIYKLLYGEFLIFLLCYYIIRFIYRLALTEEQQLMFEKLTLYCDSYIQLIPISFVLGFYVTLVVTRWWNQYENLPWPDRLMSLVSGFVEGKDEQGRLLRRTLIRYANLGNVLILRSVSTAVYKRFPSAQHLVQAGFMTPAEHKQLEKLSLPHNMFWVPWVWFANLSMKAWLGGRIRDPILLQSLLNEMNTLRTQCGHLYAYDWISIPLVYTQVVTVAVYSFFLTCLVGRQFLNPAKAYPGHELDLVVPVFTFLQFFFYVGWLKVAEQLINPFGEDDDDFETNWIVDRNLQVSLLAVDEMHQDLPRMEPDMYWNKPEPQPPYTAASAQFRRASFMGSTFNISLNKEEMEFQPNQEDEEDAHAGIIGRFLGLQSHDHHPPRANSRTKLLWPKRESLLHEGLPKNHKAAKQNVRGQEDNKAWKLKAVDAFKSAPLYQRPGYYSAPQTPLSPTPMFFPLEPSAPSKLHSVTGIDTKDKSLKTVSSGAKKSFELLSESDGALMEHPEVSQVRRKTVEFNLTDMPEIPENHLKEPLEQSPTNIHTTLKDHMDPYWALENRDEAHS

B1: WT BEST1-YFP-His (protein, UniProt O76090 1-585)
chain: T1 sequence
B2: BEST1 R218H-YFP-His (protein, UniProt O76090 1-585)
chain: T1 sequence with R218H
B3: BEST1 L234P-YFP-His (protein, UniProt O76090 1-585)
chain: T1 sequence with L234P
B4: BEST1 A243T-YFP-His (protein, UniProt O76090 1-585)
chain: T1 sequence with A243T
B5: BEST1 A10T-YFP-His (protein, UniProt O76090 1-585)
chain: T1 sequence with A10T
B6: BEST1 Q293K-YFP-His (protein, UniProt O76090 1-585)
chain: T1 sequence with Q293K
B7: BEST1 D302A-YFP-His (protein, UniProt O76090 1-585)
chain: T1 sequence with D302A

The binders below were run against T1, WT BEST1-CFP-Myc (human) (assay: co-IP; HEK293 cells co-transfected 1:1 with BEST1(WT)-CFP-myc and BEST1(mutant or WT)-YFP-His; lysis in 150 mM NaCl, 50 mM Tris, 0.5% IGEPAL CA-630, pH 7.4; precipitated with Myc monoclonal antibody and Dynabeads at 4 °C; blotted for His and Myc).

binding	Binder
binds	B1
binds	B2
binds	B3
binds	B4
binds	B5
binds	B6
binds	B7
